At least one structure is not confirmed: it was looked up by name or label, or the drawing left a doubt.
Assay: Evaluation of preservation stability (presence or absence of deposits) in acid and sugar solution (Experiment Example 3)
Type: physicochemical
Parameters: key: +: the presence of deposits; −: the absence of deposits; ×: no dissolution in the acid and sugar solution
Conditions: 30 days
Procedure: Each solution was hot-packed in a 200-ml PET bottle (93° C.). The drink so prepared was allowed to cool, and placed under 50° C., room temperature (25±2° C.), and low-temperature (5° C.) conditions for 30 days. The presence or absence of deposits was then checked by visual inspection.
The drink so prepared was allowed to cool, and placed under 50° C., room temperature (25±2° C.), and low-temperature (5° C.) conditions for 30 days. The presence or absence of deposits was then observed.
In the table, the symbol “+” means the presence of deposits, and “−” the absence of deposits. The symbol “×” means no dissolution in the acid and sugar solution.

Measured: presence or absence of deposits

C[C@@H]1O[C@@H](OC[C@H]2O[C@@H](Oc3c(-c4ccc(O)c(O)c4)oc4cc(O)cc(O)c4c3=O)[C@H](O)[C@@H](O)[C@@H]2O)[C@H](O)[C@H](O)[C@H]1O [Rutin, rutin]
−: pH 9, 50° C., flavonoid concentration 0.05%
+: pH 6, 50° C., flavonoid concentration 0.05% | pH 6, Refrigerated (5° C.), flavonoid concentration 0.05% | pH 6, Room temperature, flavonoid concentration 0.05% | pH 9, Refrigerated (5° C.), flavonoid concentration 0.05% | pH 9, Refrigerated (5° C.), flavonoid concentration 0.10% | pH 9, Room temperature, flavonoid concentration 0.05% | pH 9, Room temperature, flavonoid concentration 0.10%

Reference: patent US20120083460A1 (SAN EI GEN F.F.I., INC., priority 2009, published 2012)
